Literature values in patent publication US4834982A, “Potassium-neutral salureticum with anti-hypertensive effect” (priority 1987, dated 1989).

System: plasma-renin-aldosterone system
Conditions: well known; cited from earlier work

Structure (SMILES): NS(=O)(=O)c1cc(C(=O)O)c(NCc2ccco2)cc1Cl [furosemide]
- stimulation of the plasma-renin-aldosterone system: very strongly stimulate
